The other results are listed elsewhere or left out.

Amino acid sequences for entries named in this document (tags omitted).
UniProt Q0JBA9, entry or part of it: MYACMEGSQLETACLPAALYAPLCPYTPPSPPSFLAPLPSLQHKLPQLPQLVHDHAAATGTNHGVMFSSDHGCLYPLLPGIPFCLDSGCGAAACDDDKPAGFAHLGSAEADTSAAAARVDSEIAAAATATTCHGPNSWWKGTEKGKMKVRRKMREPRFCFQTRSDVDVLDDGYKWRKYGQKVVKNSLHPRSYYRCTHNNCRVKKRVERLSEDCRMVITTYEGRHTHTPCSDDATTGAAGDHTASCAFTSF

Drawing on article PMC7819943, “Rice protein-binding microarrays: a tool to detect cis-acting elements near promoter regions in rice”, this text covers binding signal for 42 sequences.

In this assay the target is OsWRKY34 (Oryza sativa, UniProt Q0JBA9 1-250). The assay is described as follows: protein-binding microarray (RPBM); PBS, 2% BSA, 51.3 ng/ul salmon testes DNA, 50 uM zinc acetate, 200 nM TF, 25 C, 1 h; high values mean tight binding. The settings on record: protein: recombinant; tags: N-terminal polyhistidine and DsRed monomer fusion (pET32a); label: CyDye5-dUTP incorporated in the synthesized complementary strand; 3' TTTTT single-stranded linker to array surface; dsDNA, one strand shown. Summed up:
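Using Ni–NTA, transcription factors fused N-terminally to polyhistidine and DsRed were purified after expression in E. coli BL21-CodonPlus. These were incubated at 200 nM with a blocked, double-stranded custom Agilent array for 1 h at 25 °C in a buffer containing 50 µM zinc acetate, and the array was washed. The binding signal is per-feature fluorescence intensity (arbitrary units) on an Axon 4000B scanner.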
Regarding “TCCGACCTGTCTCGCTTTCCTCGCCGGCGGCCGCTCCCTTCGGAGTCACCTAGTGCAG”, the binding signal was 8480 fluorescence intensity (a.u.).
The figure for “CCCTCTGCTCATGCCCTGCCCCACATGTCAGCCTCACGCCCGGAGTCACCTAGTGCAG” is 9360 fluorescence intensity (a.u.); for “CCGGTTCGACAGGCCTCGCGGCGCCGGGTGGTGGGCCCTGCGGAGTCACCTAGTGCAG” it is 8180 fluorescence intensity (a.u.); for “GTCGGTGGAGCGGCCCTTTTTATTTCTGTGGGAGGAGGGTCGGAGTCACCTAGTGCAG” it is 9300 fluorescence intensity (a.u.).
As to “TCGAGTCGTCGTCTTCGTCTCCGTTCCGTTGCGCCGCCTCCGGAGTCACCTAGTGCAG”, the binding signal was 9560 fluorescence intensity (a.u.).
The figure for “AACGCTTAGACATTTCAACGTTCTCCTCCACAGCAACAGCCGGAGTCACCTAGTGCAG” is 9390 fluorescence intensity (a.u.); for “ATACCTGATCCTACTTGTCATACACATATTTATCTTATAGCGGAGTCACCTAGTGCAG” it is 9880 fluorescence intensity (a.u.); for “AGTCCACACCCCACCACCACTCCACCACCATCCCAACCAACGGAGTCACCTAGTGCAG” it is 9670 fluorescence intensity (a.u.).
Then “GAGTAGTAGTGGTGGTGGTGGTATTAGTAGCAGTGAGATGCGGAGTCACCTAGTGCAG”, with 12400 fluorescence intensity (a.u.); and “AACTAACACACTCTTTCATCGTCCCTTGCTGTCAGCAGACCGGAGTCACCTAGTGCAG”, with 8840 fluorescence intensity (a.u.).
Then “AACATCGGCTCGTAGCTGTTTTTGGTAGTTGGCACACGTTCGGAGTCACCTAGTGCAG”, with 8700 fluorescence intensity (a.u.); and “CACCATCCATGCATATGCATCTTGTAGTTATTGCTTGCTCCGGAGTCACCTAGTGCAG”, with 9580 fluorescence intensity (a.u.).
On to “TTCCGCTTCTATAAATACCTCTCCCATTTCGCAACTTTTCCGGAGTCACCTAGTGCAG”, for which the binding signal is 9610 fluorescence intensity (a.u.).
The figure for “CGTCTTCGTCTCCGGCCGCCTCTCCGCCTCCACTCTTCCTCGGAGTCACCTAGTGCAG” is 9690 fluorescence intensity (a.u.); for “ACTGTGCCAACCTCTGGTTTTGGTTTTTTCCGGTTGAACCCGGAGTCACCTAGTGCAG” it is 8800 fluorescence intensity (a.u.); for “TTTATTATCCTTGTCAGCTGTAGCCCATCGAATTTCAACGCGGAGTCACCTAGTGCAG” it is 9560 fluorescence intensity (a.u.).
The figure for “TACAACTTTGTTTCAAACAACTTTTTCACATAAGTTCATTCGGAGTCACCTAGTGCAG” is 8180 fluorescence intensity (a.u.); for “GTTTCAACCTCTTGGTAACTTTCCTTTGAGTGTATCTCTCCGGAGTCACCTAGTGCAG” it is 8210 fluorescence intensity (a.u.); for “GGATGCAAAGGTGTAAAGGGTTGAAGGTTCGATCGAGATACGGAGTCACCTAGTGCAG” it is 9640 fluorescence intensity (a.u.).
Then “AAGACGTTTTGACTTTGGTTAAAGTCAAACTGTTTTAAATCGGAGTCACCTAGTGCAG”, with 10200 fluorescence intensity (a.u.); and “CGCTGTCCCCGCCCACGCGGCGACGCCACGTGTCCCCACCCGGAGTCACCTAGTGCAG”, with 8480 fluorescence intensity (a.u.).
Turning to “ATGGGCCCCACATGTCAGCTGGCCACTTCAGCTTCATACCCGGAGTCACCTAGTGCAG”, the binding signal is 9520 fluorescence intensity (a.u.).
Then “TCTACTTATCTAATGATCTTAATTCTGATGTTGTACATGTCGGAGTCACCTAGTGCAG”, with 9180 fluorescence intensity (a.u.).
The figure for “GCTCTCTGTTCATCCTCTTCCTTCCAAAATCCCCAAAATCCGGAGTCACCTAGTGCAG” is 9160 fluorescence intensity (a.u.).
Then “AAGCACAGGACTACACCTTTTTGTCCCCATTTTTTTTGTACGGAGTCACCTAGTGCAG”, with 8350 fluorescence intensity (a.u.); and “GGTTGGCGGGAGCGGCGATTCGGCGGCGGGAGGGCGCTAGCGGAGTCACCTAGTGCAG”, with 10100 fluorescence intensity (a.u.).
Turning to “GTTTTCGTCTCGAACCGACACCTTTTGTACGTTTTTTTTTCGGAGTCACCTAGTGCAG”, the binding signal is 10500 fluorescence intensity (a.u.).
Then “TTTGAGTTTTTCATGTACTGTTTGACCACTCGTCTTATTACGGAGTCACCTAGTGCAG”, with 10600 fluorescence intensity (a.u.).
Then “ACCATGATTCCTTAATCCCCTTCACCTCGTCGATGCTTACCGGAGTCACCTAGTGCAG”, with 10600 fluorescence intensity (a.u.); and “GCGCCAAGCCGGCCTCCATCTCCGCCGCCCGCGCCTCTCGCGGAGTCACCTAGTGCAG”, with 9170 fluorescence intensity (a.u.); and “AGTTGTACTTACATTTGCCTGATATGAAGCATTTAATCTTCGGAGTCACCTAGTGCAG”, with 8200 fluorescence intensity (a.u.).
For the sequence “GGGGAAATTTTCACGAGGGAGAGGGAGGGGAGGGATATTTCGGAGTCACCTAGTGCAG”, the binding signal was 23200 fluorescence intensity (a.u.).
The figure for “ATATACTACCTCCATATTTTAATGTATGACGCCGTTGACTCGGAGTCACCTAGTGCAG” is 8860 fluorescence intensity (a.u.).
The figure for “TTTTTCCCTGTTCATTGTTCCTGTGCCACTTTGATCCATACGGAGTCACCTAGTGCAG” is 9550 fluorescence intensity (a.u.); for “ATGTTGGCAGGCTCGACTGTAATGGTGTTGTTCTGTTTCTCGGAGTCACCTAGTGCAG” it is 8830 fluorescence intensity (a.u.); for “TCAGTGGATTTGCAGCTTGAGTCCTTTATTATGTTTTCCCCGGAGTCACCTAGTGCAG” it is 8800 fluorescence intensity (a.u.).
Then “CCTATCTACTGTCGTCGCGTCCTCCTCCTTCTCCGGTCCTCGGAGTCACCTAGTGCAG”, with 8340 fluorescence intensity (a.u.); and “AAGCATTTCTTGTTGACTTTAAATGCCTGTTCACTTTGATCGGAGTCACCTAGTGCAG”, with 9500 fluorescence intensity (a.u.).
Take “AGGTAGAGAGCAGAGCATATGCAGAGCAGGGGAAGGGGCGCGGAGTCACCTAGTGCAG”: the binding signal is 8090 fluorescence intensity (a.u.).
The figure for “GCTTCTTTCCTTTTCATTGTTATGCCTCCTGAATCCTGACCGGAGTCACCTAGTGCAG” is 9000 fluorescence intensity (a.u.).
The figure for “AATCATTCACCTGCCTAGCTATGAGCTCCATGATATATCCCGGAGTCACCTAGTGCAG” is 8770 fluorescence intensity (a.u.); for “CGTGGTTTTTCTCTCCTACTTTGGGAGGGTTTTTCACGTTCGGAGTCACCTAGTGCAG” it is 10300 fluorescence intensity (a.u.).
